PubChem BioAssay AID2685 (National Center for Advancing Translational Sciences (NCATS), 2010)
Some of the results follow. Shown are side measurements of this screen, not its main read-out; they come without a call. Compounds called inactive in the main read-out are mostly missing here. The note in brackets gives the kind of curve behind each potency; many fits are weak.

Assay: qHTS Assay for Lipid Storage Modulators in Drosophila S3 Cells;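 for cell number change: cells counted by Cell Tracker Red CMTPX staining in the red channel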
Conditions: BODIPY lipid droplet fluorescence, 18-24 h; for cell number change: measured here: cell count max response, cells fed with added oleic acid
Outline: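 Laser-scanning cytometry quantifies lipid droplet accumulation (500–530 nm total intensity; droplet/cell object ratio) in oleic acid-fed (400 uM added) Drosophila S3 cells treated with a concentration series. 20 uM Triacsin C defined 100% inhibition.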

[1] = measured here: lipid fluorescence (Fed channel) AC50, cells fed with added oleic acid
[2] = measured here: cell number channel AC50, cells fed with added oleic acid

For `O=C(N/N=C/c1ccccc1OCC(=O)N1CCCC1)C(=O)Nc1ccccc1F`, which cell number change is on record?
The cell number change was 15.4%.

Which results are given for `CCOC(=O)N1CCC(NC(=O)CCc2cn(C)c3ccccc23)CC1`?
cell number change: -1.14%; AC50 [1]: 29.1 µM [rising, single point]

For `O=C(N/N=C\c1ccc(-c2ccccc2[N+](=O)[O-])o1)C1COc2cc3ccccc3cc2O1` (centres undefined), which cell number change is on record?
The cell number change was -3.24%.

With `COc1ccc(NS(=O)(=O)c2ccc3c(c2)oc(=O)n3C)c(OC)c1` as the compound, how does the cell number change read?
The cell number change was 1.32%.

For `CCOC(=O)c1cc(C)n(-c2c(C)n(C)n(-c3ccccc3)c2=O)c1C`, which AC50 [2] is on record?
The AC50 was 6.51 µM [rising, single point].

Which cell number change does the source give for `CCc1cccc(C)c1NC(=O)CO/N=C(\C)c1cc2ccccc2o1` here?
Its cell number change is -12.8%.

For `COc1ccc(S(=O)(=O)N2CCCC2CNC(=O)C(=O)NCCc2ccccc2)cc1` (centres undefined), which cell number change is on record?
Its cell number change is 58.6%.

What about the AC50 [2] of the same compound?
The AC50 was 29.1 µM [rising, single point].

What does the source list for `Cc1cccc(NC(=O)Cc2c(F)cccc2Cl)n1`?
cell number change: 21.6%; AC50 [1]: 29.1 µM [rising, single point]

Which results are given for `CN(C)CCNC(=O)c1cccc(NS(=O)(=O)c2ccc(Cl)c(Cl)c2)c1`?
cell number change: 24%; AC50 [1]: 29.1 µM [rising, single point]

Which cell number change does the source give for `CC(C)Cn1c(N)c(C(=O)COC(=O)CN2C(=O)C3CC=CCC3C2=O)c(=O)n(C)c1=O` (centres undefined) here?
Its cell number change is -42%.

And the AC50 [2]?
The AC50 was 29.1 µM [falling, single point].

For `Brc1ccc(-c2c(-c3ccsc3)sc3ccccc23)cn1`, which cell number change is on record?
Its cell number change is 0.194%.

And the AC50 [2]?
The AC50 was 1.16 µM [falling, single point].

And the AC50 [1]?
The AC50 was 1.16 µM [falling, single point].

Which cell number change does the source give for `O=C(CC1Oc2ccccc2NC1=O)NC1CCCC1` (centres undefined) here?
Its cell number change is -0.264%.

And the AC50 [1]?
The AC50 was 1.64 µM [falling, partial curve].

Which results are given for `O=C(CCc1nnc(CCCc2ccccc2)o1)NCCc1ccccc1`?
cell number change: -8.19%; AC50 [1]: 6.51 µM [falling, single point]

With `COc1cc(OC)c2cc(C(=O)N/N=C/c3ccccc3O)[nH]c2c1` as the compound, how does the cell number change read?
Its cell number change is -14.7%.

What about the AC50 [1] of the same compound?
Its AC50 is 14.6 µM [falling, single point].

What does the source list for `O=C(C1CCN(S(=O)(=O)c2ccccc2)CC1)N1CCCCC1`?
cell number change: 18.4%; AC50 [2]: 0.0058 µM [rising, full curve, poor fit]

Which cell number change does the source give for `Brc1cc2c(cc1CSc1ncccn1)OCO2` here?
Its cell number change is 7.08%.

For `Cc1ccc2[nH]c3c(N4CCCCCC4)ncnc3c2c1`, which cell number change is on record?
Its cell number change is -190%.

And the AC50 [2]?
The AC50 was 29.1 µM [falling, single point].

With `O=C(CCn1cnc2ccccc2c1=O)Nc1cccc(Cl)c1Cl` as the compound, how does the AC50 [1] read?
Its AC50 is 0.00461 µM [falling, full curve, poor fit].

Which results are given for `O=C(NC1CCCCC1)C(c1ccccc1)N(Cc1ccc2c(c1)OCO2)C(=O)c1cnsn1` (centres undefined)?
cell number change: -50.7%; AC50 [2]: 16.4 µM [falling, single point]; AC50 [1]: 20.6 µM [falling, partial curve]

Which cell number change does the source give for `COCCn1c(N)c(Sc2ccc(C)cc2)c(=O)[nH]c1=O` here?
The cell number change was -1.28%.

What does the source list for `CCc1ccccc1NC(=S)N(CCCN(C)C)Cc1cc2cc3c(cc2[nH]c1=O)OCO3`?
cell number change: 33.2%; AC50 [2]: 0.461 µM [rising, full curve]; AC50 [1]: 1.3 µM [rising, full curve, poor fit]

For `Cc1sc(NC(=O)C2CC=CCC2C(=O)O)c(C(=O)OC(C)C)c1C` (centres undefined), which cell number change is on record?
Its cell number change is 59.3%.

And the AC50 [2]?
The AC50 was 2.31 µM [rising, partial curve].

What does the source list for `Cc1ccc(-c2nc3ccccc3o2)cc1NC(=S)NC(=O)c1cccs1`?
cell number change: -18.4%; AC50 [1]: 13 µM [falling, single point]

Which results are given for `COc1ccc(-n2nc3cc(C)c(N)c(Br)c3n2)cc1`?
cell number change: -21.6%; AC50 [1]: 0.82 µM [rising, full curve]

Which results are given for `N#Cc1nc(N)nc(N(c2ccccc2)c2ccccc2)n1`?
cell number change: -26.4%; AC50 [1]: 10.3 µM [falling, partial curve, poor fit]

For `COc1ccc(CN2CCc3c([nH]c4ccccc34)C2)cc1Br`, which cell number change is on record?
Its cell number change is -10.4%.

For `COc1ccc2nc3oc(C(=O)N4CC(C)CC(C)C4)cc3cc2c1` (centres undefined), which cell number change is on record?
The cell number change was -12.4%.

What about the AC50 [1] of the same compound?
The AC50 was 0.58 µM [rising, single point].

For `COc1ccccc1C/C(N)=N/OC(=O)c1ccc2c(c1)OCO2`, which cell number change is on record?
Its cell number change is 31.6%.

With `CC(CNC(=O)CCC(=O)N1CCOc2ccc(Cl)cc21)c1ccccc1` (centres undefined) as the compound, how does the AC50 [1] read?
The AC50 was 0.517 µM [falling, full curve].

Which cell number change does the source give for `CC(C)(C)CC(=O)NC(=S)NCc1ccccc1` here?
The cell number change was -17.2%.

What about the AC50 [1] of the same compound?
The AC50 was 0.164 µM [rising, single point].

For `CC(C)Oc1ccc(C(CC(=O)O)Cc2ccccc2)cc1` (centres undefined), which cell number change is on record?
Its cell number change is 22.9%.

What about the AC50 [1] of the same compound?
Its AC50 is 23.1 µM [falling, partial curve].

Which cell number change does the source give for `C#Cc1cccc(C(=O)N2CCCC(Nc3cccc(F)c3)C2)c1` (centres undefined) here?
The cell number change was -18.8%.

What about the AC50 [1] of the same compound?
Its AC50 is 23.1 µM [rising, single point].

Which cell number change does the source give for `CCOC(=O)/C=C/[C@H]1Cc2ccccc2CO1` here?
Its cell number change is -31.2%.

And the AC50 [2]?
The AC50 was 0.082 µM [falling, full curve, poor fit].

And the AC50 [1]?
Its AC50 is 0.13 µM [rising, full curve, poor fit].

With `CCOC(=O)c1cc(=O)n2nc(-c3ccc(C)cc3)nc2s1` as the compound, how does the cell number change read?
The cell number change was 5.65%.

With `COc1ccc2c(c1OC)C(=O)N(c1ccc(C)cc1)C2=O` as the compound, how does the cell number change read?
Its cell number change is 121%.

And the AC50 [2]?
The AC50 was 29.1 µM [rising, single point].

Which cell number change does the source give for `CN1CCN(S(=O)(=O)c2ccc(NC(=O)c3ccc(F)cc3)cc2)CC1` here?
Its cell number change is 6.41%.

Which cell number change does the source give for `COc1ccc(OC)c(-c2cnc(OC(C)(C)C)nc2OC(C)(C)C)c1` here?
The cell number change was -8.46%.

What about the AC50 [1] of the same compound?
Its AC50 is 4.11 µM [falling, partial curve, poor fit].

Which results are given for `COc1cccc(N2CC(O)Cn3c2nc2c3c(=O)n(CCCc3ccccc3)c(=O)n2C)c1` (centres undefined)?
cell number change: -31.2%; AC50 [2]: 0.92 µM [falling, full curve, poor fit]

Which AC50 [2] does the source give for `COc1ccc(CCN=C2SCC(=O)N2C)cc1OC` here?
The AC50 was 0.461 µM [falling, single point].

What does the source list for `CC1CCCCC1NC(=O)CN1C(=O)NC(C)(c2cccc(Br)c2)C1=O` (centres undefined)?
cell number change: -12.8%; AC50 [2]: 5.8 µM [falling, single point]; AC50 [1]: 10.3 µM [falling, partial curve]

For `Cc1ccc(Cn2c(O)c(N=NC(=S)Nc3ccccc3F)c3ccccc32)cc1`, which cell number change is on record?
The cell number change was -40.1%.

What about the AC50 [2] of the same compound?
Its AC50 is 18.4 µM [falling, partial curve].

And the AC50 [1]?
Its AC50 is 14.6 µM [falling, partial curve, poor fit].
